Measured values taken from article PMC3373496.

Protein sequences, listed by entry. Tags and fused reporters are not part of them. Lines headed by an entry give the natural chain unless they say otherwise; changes in a name come on top.
UniProt Q03358: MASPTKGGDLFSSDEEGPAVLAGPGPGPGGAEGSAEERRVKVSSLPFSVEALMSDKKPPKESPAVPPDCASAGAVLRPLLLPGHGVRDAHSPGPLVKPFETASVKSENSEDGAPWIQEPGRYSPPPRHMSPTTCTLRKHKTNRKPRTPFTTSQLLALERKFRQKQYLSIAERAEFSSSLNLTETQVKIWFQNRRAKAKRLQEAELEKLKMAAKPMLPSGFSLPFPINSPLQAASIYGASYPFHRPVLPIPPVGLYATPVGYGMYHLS

Target: GST-Msx2 (UniProt Q03358)
Test: EMSA
Settings: 1X phosphate buffer, 10% glycerol, 0.3 mg/ul BSA, 0.1 ug/ul DNaseI-digested poly[dG-dC], 20 ul, on ice 10 min + 20 min with probe; 6% native PAGE, 1x TBE, 4 C; recombinant protein; residues 1-267; protein details: N-terminal GST (pGEX3X); label: 32P 5' end (PNK) when probe

GATCCACTAATTGGAGG (double strand) [MBS]: binds.

Construct, isoform or probe ends are uncertain for at least one entry.
